These results are taken from article PMC5353614.

By UniProt entry, the sequences of proteins in these tests, tags left out. Residues count along the entry.
UniProt P40946: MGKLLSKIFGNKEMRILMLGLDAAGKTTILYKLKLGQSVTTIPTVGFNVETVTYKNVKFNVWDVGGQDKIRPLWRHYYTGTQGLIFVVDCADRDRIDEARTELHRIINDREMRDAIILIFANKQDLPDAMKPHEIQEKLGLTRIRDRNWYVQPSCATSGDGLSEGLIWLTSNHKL
UniProt Q02936, residues 85-471: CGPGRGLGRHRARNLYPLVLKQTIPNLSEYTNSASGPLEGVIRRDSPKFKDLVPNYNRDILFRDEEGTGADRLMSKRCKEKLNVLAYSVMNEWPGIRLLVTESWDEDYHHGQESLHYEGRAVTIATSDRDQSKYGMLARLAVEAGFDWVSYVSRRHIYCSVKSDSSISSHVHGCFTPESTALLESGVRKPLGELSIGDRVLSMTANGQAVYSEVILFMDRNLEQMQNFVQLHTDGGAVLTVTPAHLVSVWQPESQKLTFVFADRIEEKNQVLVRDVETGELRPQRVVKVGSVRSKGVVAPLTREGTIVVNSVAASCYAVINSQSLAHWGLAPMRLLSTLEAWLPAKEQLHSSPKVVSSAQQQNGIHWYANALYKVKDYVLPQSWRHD

The experiment concerns the target ADP-Ribosylation Factor 6 (Drosophila (endogenous in imaginal discs)) (UniProt P40946). The experiment in a line: co-IP; lysates of imaginal discs from 50 third-instar animals with Ras^V12 clones (also Egfr^Top-CA, Ras^V12 or EGFR-DN, Ras^V12 double mutant clones); lysis buffer 50 mM HEPES pH 7.5, 150 mM KCl, 5 mM MgCl2, 0.01% Triton-X; anti-Arf6 4 h at 4 °C, protein A agarose beads; washed in buffer with 0.5% TritonX-100; blotted with anti-Hh.

Results are given in words; binding and its absence hold for the method and conditions named. In cells and extracts the contact can be indirect. Some results given as binding are weak or reduced against the parent protein; the word gives no strength.

In the case of Hedgehog (from UniProt Q02936 85-471), the binding result is “binds”.
